Measured values from US20210268073A1, “METHODS OF REDUCING POLYSORBATE DEGRADATION IN DRUG FORMULATIONS” (Regeneron Pharmaceuticals, Inc., priority 2020, published 2021).

Experiment: PRM analysis of CES-B1L and CES-1L in mAb-1
Set-up: species or system CHO
Details: PRM analysis of direct digest of mAb-1

B1: CES-B1L: CHO host cell protein lipase identified in mAb-1, SEQ ID NO: 10 (protein, listed as Cricetulus griseus)
chain: MCLQALFLVLQAICMVWGHPSSPPVVNTVHGKVLGRYISLEGFSQPVAVFLGVPFAKPPLGSLRFAPPQPAEPWSFVKNATSYPPMCSQDAVRGQKINDLITNRKEKIHLEFSEDCLYLNIYTPANLTRSSRLPAARCMIRKARTVSGTKSFLLPQKITGDEHSQGNWGHLDQVAALHWVQDNIAYFGGDPGSVTIFGESAGGFSVSVLVLSPLAKNLFHRAISESGVIFVPSLFTKNPRTATEKVAVTAGCKTTTSAVIVHCLRQKTEDELLEVMQKMVGVFSNGMCSRCLDHAFVPTVLDGVLLPKAPEEILAEKNFNTVPYIVGINKQEFGWLLPTMMRFPQPDDKKMAIALLQKFAPYFGMNEDVVPVAIEKYVRGSNEPLKIRDGVLDILGDLTFGIPSVIVSRGHRDTGASTYMYEFQYHPSFSSHMRPKNVVGDHGDEVYSVFGAPILRDGASEEETNLSKMMMKFWANFARNGNPNGEGLPHWPEYDQKEGYLQIGATTQQTQRLKGEEVAFWTEILAKKHPKPEHNELSNKYLCFELAIKETRDSLHNPNARDVFQVLKSASYGKGSIVRHTPSPPVVDTVHGKVLGKYVSLEGFAQPVAVFLGVPFAKPPLGSLRFAPPQPPEPWNFVKNATSYPPMCSQPDVTGQIVNDLLTNRKENIPLQFSEDCLYLNIYTPSDLTRSDRLPVSCGTSPTF
  concentration of lipase in mAb-1: 9.6 ppm

B2: CES-1L: CHO host cell protein lipase identified in mAb-1, SEQ ID NO: 11 (protein, listed as Cricetulus griseus)
chain: MMWLCTFVLTFLTACLYQGHPPSPPIVDTVHGKVLGKYVSLEGFTQPVAIFLGVPFAKPPLGSLRFAPPQSAEPWSFVKNATSYPPMCSQDPAAGQMLSALFTNRKETIPLTFSEDCLYLNIYTPADLTKSSRLPVMVWIHGGGLVDGASTYDGLPLSAHENVVVVTIQYRLGIWGFFSTQDEHSRGNWGHLDQVAALHWVQDNIANFGGDPGSVTIFGESAGGASVSVLVLSPLAKNLFHRAISQSSVILNPCLFGRDARPIAERVAALAGCKTTTSAAMVHCLRQKTEDELLEITKKMKFGALDFLGDPRESYPFLPTVIDGVVLPKTPEEILAEKSFNTVPYMVGINKQEFGWSMPMMIGFPLSEDKLDQKRTTSLLWQSYPILNISESLIPAAIEKYLSGTDNPIRKKDLLLDLMGDVMFGVPSVIVSRGHRDAGAPTYMYEFQYLPSFVSDMRPKTVKGDHGDDLFSVWGAPFLKEGASEEEINLSKMVMKFWGNFARNGPPNGEGLPHWPEYDQKEGYLQIGVPTQAAHRLKDKEVAFWTELRAKEPAERPTQRKHVMVWIHGGGLILGGASTYDGLALSAHENVVVVAIQYRLSIWGFFSTGDEHSRGNWGHLDQVAALHWVQDNIANFGGDPGSVTIFGESAGGESVSVLMFSPLAKNLFHRAISESGVILVPGLFTKDSRIVTEKVAVTAGCKTTTSAVIVHCLRQKTEDELLEVMQKMNLFKLNVQGDTKENHAFVPTVLDGVLLPKAPEEILAEKNFNTVPYIVGINKQEFGWLLPTMMGFLQTDVKWDKKMAIALLQKFAPYFVCQYGRPALYWNPNGEGLPHWPEYDQKEGYLQIGATTQQAQRLKGEEVAFWTEILAKKQPKPEHNEL
  concentration of lipase in mAb-1: 9.0 ppm
